In PubChem BioAssay AID192 (DTP/NCI, 2004):
The list shows only some results of the screen, not a fair sample: it is rich in T/C values a quarter to a half above the control, in often repeated tests (any T/C) and in doses without a T/C. Other doses and runs of a compound stand elsewhere. T/C: endpoint of the treated group in % of that of the vehicle group. Some entries give survivors of the animals treated and no T/C: the source holds a T/C of zero for them, seemingly a mark for toxic or unscored doses. Some survivor counts are full or nearly so, which does not show that the dose was tolerated: the source hardly ever lists a survival T/C far under the control, and the zero likely stands for such cases as well. Counts of survivors are from the toxicity check (mostly the fifth day) where no day follows; animals may have died later. Schedule codes are those of the source, read here as Q, the interval in days (D) or hours (H), X, the number of doses. Where survival is the endpoint, this PubChem deposit counts one and a half times the control or more as active, and values a quarter to a half above the control carry no call in these data; other NCI protocols may use other cut-offs. Some T/C values are followed by the survivors on the day toxicity was checked, most often the fifth; without a count, all were alive then.

Test system: BDF1 mice, B16 melanoma ip, median survival T/C
Experiment: NCI In Vivo Anticancer Drug Screen. Data for tumor model B16 Melanoma (intraperitoneal) in B6D2F1 (BDF1) mice
Details: T/C endpoint: median survival time, higher T/C = longer survival
Method in brief: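 Compounds were tested in mice carrying transplantable tumors. Survival or tumor size was recorded, and each value is the treated-group measurement (T) divided by that of the vehicle-treated control group (C).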

[1] = dose: 200.0 mg/kg/injection, schedule: Q01DX009 (ip), vehicle: saline with Tween-80
[2] = dose: 200.0 mg/kg/injection, schedule: Q01DX009 (ip), vehicle: Klucel (hydroxypropylcellulose) (HPC)
[3] = dose: 100.0 mg/kg/injection, schedule: Q01DX009 (ip), vehicle: saline with Tween-80

With `CN(Cc1cnc2nc(N)nc(N)c2n1)c1c(Cl)cc(C(=O)NC(CCC(=O)O)C(=O)O)cc1Cl` (centres undefined) the survivor count (dose: 70.0 mg/kg/injection, schedule: Q01DX011 (ip), vehicle: saline) was 10 of 10 and the survivor count (dose: 100.0 mg/kg/injection, schedule: Q01DX009 (ip), vehicle: Klucel (hydroxypropylcellulose) (HPC)) was 10 of 10.

For `CCCNC(C)(C)C(SSS)c1cccs1` (centres undefined), the survivor count (dose: 37.5 mg/kg/injection, schedule: Q04DX003 (ip), vehicle: alcohol) was 10 of 10, the survivor count (dose: 75.0 mg/kg/injection, schedule: Q04DX003 (ip), vehicle: alcohol) was 10 of 10 and the survivor count (dose: 100.0 mg/kg/injection, schedule: Q01DX009 (ip), vehicle: alcohol) was 9 of 10. For the same molecule, the survivor count (dose: 150.0 mg/kg/injection, schedule: Q04DX003 (ip), vehicle: alcohol) was 10 of 10 and the survivor count (dose: 200.0 mg/kg/injection, schedule: Q01DX009 (ip), vehicle: alcohol) was 7 of 10.

For `CCOC(=O)c1ccc(NC(=O)Nc2nc(C)cs2)cc1`, the T/C (dose: 12.5 mg/kg/injection, schedule: Q01DX009 (ip), vehicle: distilled water + Tween-80) was 131 % of control, the T/C (dose: 50.0 mg/kg/injection, schedule: Q01DX009 (ip), vehicle: distilled water + Tween-80) was 126 % of control and the T/C (dose: 100.0 mg/kg/injection, schedule: Q01DX009 (ip), vehicle: distilled water + Tween-80) was 144 % of control.

For `Cc1ccc(C)c(C(O)C2CC2)c1` (centres undefined), the survivor count [1] was 10 of 10.

With `Nc1ccc(S(=O)(=O)N/N=C/c2ccccc2[N+](=O)[O-])cc1` the T/C (dose: 25.0 mg/kg/injection, schedule: Q01DX009 (ip), vehicle: saline with Tween-80) was 125 % of control.

With `C=C1CCN(c2cccc(Cl)c2)C1=O` the survivor count (dose: 8.0 mg/kg/injection, schedule: Q01DX009 (ip), vehicle: saline + alcohol) was 10 of 10.

For `Cn1c(O)c(C=N)c(=O)n(C)c1=O`, the survivor count (dose: 100.0 mg/kg/injection, schedule: Q01DX009 (ip), vehicle: other) was 8 of 10.

In the case of `CSc1nc2ccccc2s1`, the survivor count [2] is reported as 6 of 10.

`O=C1C(=O)c2ccccc2C(O)=C1CCCc1ccc(OCc2ccccc2)cc1` was tested, and the survivor count (dose: 40.0 mg/kg/injection, schedule: Q01DX009 (ip), vehicle: saline with Tween-80) was 6 of 10.

`CCCCCCCCCCCCCCCCCC[N+](C)(C)C` (tested in a mixture with another compound) was tested, and the survivor count (dose: 8.0 mg/kg/injection, schedule: Q01DX009 (ip), vehicle: saline sonified) was 6 of 6.

In the case of `CCN(CC)CCCC(C)Nc1c2ccc(Cl)cc2nc2ccc(OC)cc12` (centres undefined), the T/C (dose: 64.0 mg/kg/injection, schedule: Q01DX009 (ip), vehicle: saline) is reported as 129 % of control [9 of 10 alive], the T/C (dose: 64.0 mg/kg/injection, schedule: Q01DX009 (ip), vehicle: suspension in saline) is reported as 140 % of control and the T/C (dose: 128.0 mg/kg/injection, schedule: Q01DX009 (ip), vehicle: saline with Tween-80) is reported as 142 % of control. The survivor count (dose: 128.0 mg/kg/injection, schedule: Q01DX009 (ip), vehicle: saline) was 10 of 10, the survivor count (dose: 128.0 mg/kg/injection, schedule: Q01DX009 (ip), vehicle: suspension in saline) was 10 of 10 and the survivor count (dose: 160.0 mg/kg/injection, schedule: Q04DX003 (ip), vehicle: saline with Tween-80) was 4 of 10. For the same molecule, the survivor count (dose: 256.0 mg/kg/injection, schedule: Q01DX009 (ip), vehicle: saline with Tween-80) was 1 of 10, the survivor count (dose: 256.0 mg/kg/injection, schedule: Q01DX009 (ip), vehicle: saline) was 0 of 10 and the survivor count (dose: 256.0 mg/kg/injection, schedule: Q01DX009 (ip), vehicle: suspension in saline) was 0 of 10. The survivor count (dose: 320.0 mg/kg/injection, schedule: Q04DX003 (ip), vehicle: saline with Tween-80) was 0 of 10.

In the case of `Cc1ccc(NC(=O)Nc2cccc(Cl)c2C)cc1NC(=O)Nc1cccc(Cl)c1C`, the survivor count [3] is reported as 10 of 10, the survivor count [1] is reported as 10 of 10 and the survivor count (dose: 400.0 mg/kg/injection, schedule: Q01DX009 (ip), vehicle: saline with Tween-80) is reported as 10 of 10.

With `Oc1ccc(Br)cc1-c1nc2cc(Cl)c(Cl)cc2nc1-c1cc(Br)ccc1O` the survivor count [2] was 10 of 10 and the survivor count (dose: 400.0 mg/kg/injection, schedule: Q01DX009 (ip), vehicle: Klucel (hydroxypropylcellulose) (HPC)) was 10 of 10.

With `CCCCC(=O)NN` the survivor count [3] was 10 of 10.

In the case of `CC(=O)OCC(OC(C)=O)C(OC(C)=O)C(OC(C)=O)C(C#N)OC(C)=O` (centres undefined), the survivor count (dose: 400.0 mg/kg/injection, schedule: Q04DX003 (ip), vehicle: saline with Tween-80) is reported as 10 of 10.
